Experimental data from article doi:10.1101/2020.01.04.893909 (bioRxiv, 2020).
No constants are given. Whether binding was seen depends on the method and setting. In cells and extracts the contact can be indirect. Here binding means that the protein was enriched with, or labelled near, the bait; the list need not be complete. One block for each molecule: values may come before it.

Sequences of proteins named here, by UniProt entry; tags and fusion partners are left off.
UniProt Q03433: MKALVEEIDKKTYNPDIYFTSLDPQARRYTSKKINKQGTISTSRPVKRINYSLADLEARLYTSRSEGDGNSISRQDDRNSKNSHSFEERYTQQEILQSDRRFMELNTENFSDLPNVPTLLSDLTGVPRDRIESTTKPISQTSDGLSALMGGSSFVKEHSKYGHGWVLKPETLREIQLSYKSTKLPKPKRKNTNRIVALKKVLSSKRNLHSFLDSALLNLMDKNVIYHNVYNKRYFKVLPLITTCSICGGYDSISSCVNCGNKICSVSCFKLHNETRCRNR
UniProt P21827: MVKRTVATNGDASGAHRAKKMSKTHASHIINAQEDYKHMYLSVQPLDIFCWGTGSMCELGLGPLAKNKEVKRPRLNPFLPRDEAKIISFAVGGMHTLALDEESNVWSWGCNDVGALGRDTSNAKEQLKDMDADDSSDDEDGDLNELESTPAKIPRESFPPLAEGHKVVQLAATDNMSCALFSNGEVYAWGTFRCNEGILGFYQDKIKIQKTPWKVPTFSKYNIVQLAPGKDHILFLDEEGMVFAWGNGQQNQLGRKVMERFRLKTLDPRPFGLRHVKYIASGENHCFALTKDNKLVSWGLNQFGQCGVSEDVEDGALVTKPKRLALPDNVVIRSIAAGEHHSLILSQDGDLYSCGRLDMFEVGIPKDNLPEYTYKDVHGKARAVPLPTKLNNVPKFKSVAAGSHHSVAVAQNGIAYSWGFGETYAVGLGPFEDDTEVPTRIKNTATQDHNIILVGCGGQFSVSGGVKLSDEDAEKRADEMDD
UniProt Q06142: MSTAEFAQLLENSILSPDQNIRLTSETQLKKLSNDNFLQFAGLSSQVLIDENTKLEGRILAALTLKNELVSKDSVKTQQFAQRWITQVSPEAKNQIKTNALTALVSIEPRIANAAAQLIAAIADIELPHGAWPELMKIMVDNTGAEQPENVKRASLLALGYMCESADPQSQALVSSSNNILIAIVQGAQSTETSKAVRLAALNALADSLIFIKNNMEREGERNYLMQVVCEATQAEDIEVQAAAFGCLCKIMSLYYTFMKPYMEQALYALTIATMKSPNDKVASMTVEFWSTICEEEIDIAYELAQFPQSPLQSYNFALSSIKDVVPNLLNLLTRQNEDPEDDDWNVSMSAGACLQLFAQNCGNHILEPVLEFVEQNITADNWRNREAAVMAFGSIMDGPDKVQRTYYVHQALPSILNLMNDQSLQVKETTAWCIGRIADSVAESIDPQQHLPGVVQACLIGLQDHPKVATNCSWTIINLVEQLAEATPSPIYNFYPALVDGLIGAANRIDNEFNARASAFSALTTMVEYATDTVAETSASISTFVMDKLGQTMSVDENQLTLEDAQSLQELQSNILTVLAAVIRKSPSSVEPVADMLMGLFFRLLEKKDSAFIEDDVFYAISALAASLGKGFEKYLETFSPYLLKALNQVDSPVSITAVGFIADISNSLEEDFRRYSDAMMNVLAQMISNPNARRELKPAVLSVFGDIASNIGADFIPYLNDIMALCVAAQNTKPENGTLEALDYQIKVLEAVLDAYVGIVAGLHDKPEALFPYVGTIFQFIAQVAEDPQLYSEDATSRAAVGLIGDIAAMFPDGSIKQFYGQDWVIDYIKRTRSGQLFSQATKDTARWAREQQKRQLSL
UniProt Q02821: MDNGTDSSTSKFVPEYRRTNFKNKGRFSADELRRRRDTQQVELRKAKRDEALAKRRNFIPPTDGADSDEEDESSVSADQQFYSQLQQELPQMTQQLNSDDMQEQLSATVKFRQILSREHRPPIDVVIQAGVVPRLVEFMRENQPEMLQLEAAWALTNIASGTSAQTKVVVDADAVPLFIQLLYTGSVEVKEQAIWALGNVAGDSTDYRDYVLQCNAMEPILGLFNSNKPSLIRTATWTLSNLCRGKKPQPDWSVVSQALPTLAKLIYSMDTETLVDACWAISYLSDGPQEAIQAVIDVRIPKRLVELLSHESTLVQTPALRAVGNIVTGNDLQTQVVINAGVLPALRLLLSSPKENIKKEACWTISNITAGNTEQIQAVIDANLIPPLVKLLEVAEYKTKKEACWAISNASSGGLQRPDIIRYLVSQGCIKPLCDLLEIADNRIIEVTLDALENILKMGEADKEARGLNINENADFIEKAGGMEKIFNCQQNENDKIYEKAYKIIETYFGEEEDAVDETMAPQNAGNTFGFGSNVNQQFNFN

Molecular target: 3xFLAG-tagged wild-type Gsp1 (S. cerevisiae) (UniProt P32835)
Test: affinity purification with mass spectrometry

Molecule: Vps71 (from UniProt Q03433 1-280)
binding: binds

Molecule: Srm1 (GEF), S. cerevisiae, endogenous (from UniProt P21827 1-482)
binding: binds

Molecule: Kap95 (from UniProt Q06142 1-861)
binding: binds

Now from value to molecule:

binding: binds
Molecule: Srp1 (from UniProt Q02821 1-542)

binding: binds
B1: Pse1 (protein, UniProt P32337 1-1089)
chain: MSALPEEVNRTLLQIVQAFASPDNQIRSVAEKALSEEWITENNIEYLLTFLAEQAAFSQDTTVAALSAVLFRKLALKAPPSSKLMIMSKNITHIRKEVLAQIRSSLLKGFLSERADSIRHKLSDAIAECVQDDLPAWPELLQALIESLKSGNPNFRESSFRILTTVPYLITAVDINSILPIFQSGFTDASDNVKIAAVTAFVGYFKQLPKSEWSKLGILLPSLLNSLPRFLDDGKDDALASVFESLIELVELAPKLFKDMFDQIIQFTDMVIKNKDLEPPARTTALELLTVFSENAPQMCKSNQNYGQTLVMVTLIMMTEVSIDDDDAAEWIESDDTDDEEEVTYDHARQALDRVALKLGGEYLAAPLFQYLQQMITSTEWRERFAAMMALSSAAEGCADVLIGEIPKILDMVIPLINDPHPRVQYGCCNVLGQISTDFSPFIQRTAHDRILPALISKLTSECTSRVQTHAAAALVNFSEFASKDILEPYLDSLLTNLLVLLQSNKLYVQEQALTTIAFIAEAAKNKFIKYYDTLMPLLLNVLKVNNKDNSVLKGKCMECATLIGFAVGKEKFHEHSQELISILVALQNSDIDEDDALRSYLEQSWSRICRILGDDFVPLLPIVIPPLLITAKATQDVGLIEEEEAANFQQYPDWDVVQVQGKHIAIHTSVLDDKVSAMELLQSYATLLRGQFAVYVKEVMEEIALPSLDFYLHDGVRAAGATLIPILLSCLLAATGTQNEELVLLWHKASSKLIGGLMSEPMPEITQVYHNSLVNGIKVMGDNCLSEDQLAAFTKGVSANLTDTYERMQDRHGDGDEYNENIDEEEDFTDEDLLDEINKSIAAVLKTTNGHYLKNLENIWPMINTFLLDNEPILVIFALVVIGDLIQYGGEQTASMKNAFIPKVTECLISPDARIRQAASYIIGVCAQYAPSTYADVCIPTLDTLVQIVDFPGSKLEENRSSTENASAAIAKILYAYNSNIPNVDTYTANWFKTLPTITDKEAASFNYQFLSQLIENNSPIVCAQSNISAVVDSVIQALNERSLTEREGQTVISSVKKLLGFLPSSDAMAIFNRYPADIMEKVHKWFA

binding: binds
B2: S. cerevisiae homologue of GAP (Rna1), recombinant (natural protein, UniProt P11745 1-407, looked up)
chain: MATLHFVPQHEEEQVYSISGKALKLTTSDDIKPYLEELAALKTCTKLDLSGNTIGTEASEALAKCIAENTQVRESLVEVNFADLYTSRLVDEVVDSLKFLLPVLLKCPHLEIVNLSDNAFGLRTIELLEDYIAHAVNIKHLILSNNGMGPFAGERIGKALFHLAQNKKAASKPFLETFICGRNRLENGSAVYLALGLKSHSEGLKVVKLYQNGIRPKGVATLIHYGLQYLKNLEILDLQDNTFTKHASLILAKALPTWKDSLFELNLNDCLLKTAGSDEVFKVFTEVKFPNLHVLKFEYNEMAQETIEVSFLPAMEKGNLPELEKLEINGNRLDEDSDALDLLQSKFDDLEVDDFEEVDSEDEEGEDEEDEDEDEKLEEIETERLEKELLEVQVDDLAERLAETEIK
